Test results: patent US20180008612A1 (priority 2016, published 2018)
“And” between values parts separate entries of the source, which are not always exact repeats. Equal values may be shown once. Read-outs that look alike come from different tables or passages of the source. At least one structure is not confirmed: it was looked up by name or label, or the drawing left a doubt.

Test: Antioxidant effect on galantamine stability under normal and stress conditions
Format: physicochemical

In the case of COc1ccc2c3c1O[C@H]1C[C@@H](O)C=C[C@@]31CCN(C)C2 [Control (without antioxidant), galantamine, reference compound], the “Total Impurity Amount %” value is reported as 1.20% and 0.63%, the “Total Impurity Amount %” value (galantamine with the antioxidant (label), 25′C) is reported as 0.11% and the “Total Impurity Amount %” value (galantamine with the antioxidant (label), 80′C-4 D) is reported as 1.84%.
